# Screen size: about 53,000 sequences; about 3,700 (7%) were called active.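 How the source made its calls: active means gene knockdowns whose robust z-score for IL-1 alpha signal is at least 2 or at most -2, so actives lie on both sides; inactive means the rest.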 Some of the results follow.
# Assay: Components of the Cytosolic LPS Sensing Pathway: Gene Identification via Genome-wide siRNA Screen;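 further: robust z of the log signal after scaling to non-targeting control siRNA wells of the plate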
# Conditions: RAW264.7 macrophages, IL-1a HTRF, actives lie on both sides, screened at 100 nM (by protocol), cells primed 5 h with Pam3CSK4 first
# Procedure, shortened: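 RAW264.7; siRNA 100 nM final, RNAiMAX, 48h 37 degrees C; Pam3CSK4 5 h; LipidA + TransIT-TKO 24 h; IL-1a HTRF; CellTiter-Glo viability; robust z vs negative-control median.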
row,Sequence,z-score
1,GCUCUUUGGUCGAGAACCATT against Mup5,active: -2.42
2,AUGUUUGAGAGCGACUUUATT against Fam71b,inactive: -1.59
3,GGUCAUUGAAGUGCAAGCCTT against 4931406C07Rik,inactive: 0.18
4,CCCUCUUAAGACAUGCAGGTT against Cltb,inactive: -0.156
5,GCUCUACCUCAGAUAAAGGTT against Banf2,active: -2.45
6,GGGCAAAGUUGAAUAUCUGTT against Cbx7,inactive: -1
7,GUUUCCUUGUGCUAAUGUUTT against Olfr1199,inactive: 1.15
8,GGAAGUGGAAUUCUUCAGUTT against Rap1gds1,inactive: 0.481
9,GGGAUGAGAACAAGAAUGUTT against Moap1,inactive: 0.164
10,GCUUGGUCAUUUUAAUAGGTT against Zscan29,inactive: -0.527
11,GCCUUUAAUACAUAGGCUUTT against Cxcl9,inactive: -0.381
12,CCUGUCAGUCCAAUCAAUUTT against Ldlr,inactive: 0.426
13,GCACUCAAGACCUGUAUGATT against Cldn18,inactive: 0.627
14,GCUGAAAGAUUUACUGCCCTT against Bhlhe41,active: 2.95
15,GCUGCUUCCUCCUCAUUCUTT against Olfr934,inactive: -0.394
16,GGUGCAUUCACGUAUUUACTT against Olfr1537,inactive: 1.25
17,GGUUGUUUGGAAAUCAAAUTT against Crisp3,inactive: 0.971
18,GGCAUGACUGGACUGAAAATT against Ythdf3,inactive: -0.976
19,GUUCCUCUUCGUCAGCACATT against Gja4,inactive: 0.173
20,GGCCGAUGUUUAUUCUUUUTT against Lrrk2,inactive: 0.792
21,GGUAACUGUUACACAAAUCTT against Tmem161b,inactive: -0.291
22,GGGAAGCUCGUUUUAACAATT against Suds3,inactive: 1.32

row,Sequence,z-score
1,CGAAGUUAUGCCCAGAAUGTT against Ints14,inactive: 0.0184
2,GGCGGCACGUUCACCUAAATT against Rnps1,inactive: 1.86
3,GGUUGUUGGACCAGUGUAUTT against Ranbp6,inactive: -0.0455
4,CGGCUCAUCCGAUAUAUCCTT against Hcn2,inactive: -1.39
5,GCAUCAAAAACGAGCCCUUTT against Cyth1,inactive: -0.644
6,GGGAUGAGAAAGUUCAGUUTT against Cox4i1,inactive: 0.321
7,GAGCUUCUGGCUGAGAUAATT against Espn,inactive: -0.388
8,GCCGAUUGUCCUAUCUCCATT against Spg7,inactive: 1.63
9,GGAUGUGCUAUCGAAGACATT against Gm11992,inactive: 1.93
10,GGAAGACACAGUUUCUCUUTT against Hs6st3,inactive: 0.532
11,CCUAUCUUGUCCGGUUUACTT against Cyb5rl,active: 3.99
12,GGAGCUGUUGAAAGAAUAUTT against Relt,active: 2.63
13,GCGACUAGAGAUCAAUUGCTT against Banp,inactive: 1.1
14,GCCAAUGAUAGAUUUGAACTT against Fam204a,inactive: -0.555
15,CCUGAAUGGACAAACAGGATT against Gm6460,inactive: -0.193
16,GCCAUCGUCUACCUAUGACTT against Olfr358,inactive: -1.85
17,CCCAUCUUUGCAACAUAUCTT against Scgb2b20,inactive: -1.43
18,CGUGUUUCAGGUUUCUAUUTT against Sgpp2,inactive: 0.841
19,GCCGAAUAUUUCUACCUAATT against Fosl2,inactive: 0.989
20,GCAAUACGUGGAAGAUGGATT against Prex1,inactive: -1.98
21,GCAGGCUCUGCAUGAAGCATT against Alpl,inactive: -0.213
22,GGAGAAAGAGAUUCCUAUUTT against Triap1,inactive: -0.818

# Rewritten bar-delimited: entries from further up.
row | Sequence | z-score
2 | AUGUUUGAGAGCGACUUUATT against Fam71b | inactive: -1.59
5 | GCUCUACCUCAGAUAAAGGTT against Banf2 | active: -2.45
5 | GCAUCAAAAACGAGCCCUUTT against Cyth1 | inactive: -0.644

# Additional entries follow.

row,Sequence,z-score
1,GGCUUUGUAUCAUCAUCAUTT against Vsir,inactive: -0.906
2,GGUAUCACACUGGAAAGAATT against Zfp78,inactive: 0.0156
3,GGUAGAUUUUGAUGAAUUCTT against Caln1,inactive: 0.404
4,GGUGACAAAACCAUUUCCUTT against Olfr810,inactive: -0.547
5,CCUAUAUUCGGAGUGCAGUTT against Cops2,inactive: 0.541
6,GGCCAAGAACCGCUUUCACTT against Hesx1,inactive: -1.46
7,CAGGAAAUUAGCGAUGUGGTT against Abl2,inactive: 0.206
8,GGUGUUGGAUUCCAAUCCCTT against Uba5,inactive: -0.462
9,GGAAGAGGGUUAAGAAAACTT against Nnat,inactive: 0.618
10,CCUUACGAAAUAAGGUAUUTT against Loxl3,inactive: -0.961
11,UGUAACCAUGGUUACCGUGTT against Olfr1513,inactive: 0.311
12,GGAAUCUGAAGGAGAUGCATT against Tmprss15,inactive: 0.308
13,CGUAGAAGAAUCUGCAUCATT against Ccl28,inactive: -0.715
14,GGCUGUGGAUAAUAAACAUTT against Vmn1r84,inactive: -1.1
15,GCGUGCAUAUCUUAGAAAUTT against Zfp51,inactive: -0.401
16,GGAAAAAAGUUCAUCGUGGTT against Kcnu1,inactive: 0.205
17,GGAGAUUUGCUCCUUAGUGTT against Pcdhb19,inactive: -0.491
18,GCCUGUAAGACUGUACUGGTT against Slurp1,inactive: -0.37
19,GCAUCGAUAGUAUACUGUGTT against Srr,inactive: -0.126
20,GGUUCUACGGUCCAAAGUUTT against Fetub,inactive: -0.421
21,GGUUACCAAGCCUAAGACCTT against H1f5,inactive: -0.48
22,CCUGGACAAGCAAGAUCUCTT against Vmn2r42,inactive: 1.36

row,Sequence,z-score
1,GGCUCUGAUCUUGAACUAATT against Tmem35a,inactive: -0.017
2,GUUCAUCAUUCGAAUCUGGTT against Kcnq5,inactive: -1.19
3,GCCCUGUAUUUUGAAUUACTT against Bmpr1b,inactive: 0.0161
4,GAUCUUAGCUGUGUGUGUGTT against Pf4,active: -2.57
5,CGUUUCUGCAGCAAAAUUUTT against Spag16,inactive: -0.474
6,GCACAAACUACUGAACUUGTT against Tfap2e,inactive: 1.36
7,GGCAUAAGAGAAAAGAUUUTT against Avpr1a,inactive: 0.895
8,GGGUUAUGAAGAGAAACUUTT against Gatad2b,inactive: 0.236
9,CCUGUAUGGUCAAAGGAGUTT against Il6ra,inactive: -0.237
10,GGCUCUUCUACUCCUUUUUTT against Lsm2,inactive: -0.555
11,GGACAACACCAGUGACAUCTT against Gzmf,inactive: 0.656
12,GGCGGAGGAAGAGUUCAACTT against Atp6v1e2,inactive: -0.393
13,CCGUGAUCCCAUCAUGCAUTT against Ereg,inactive: -0.239
14,GGAUAAAUGGGUAAUUCUGTT against Vmn2r1,inactive: 0.269
15,GGCCUCUGAGGACAAGUUUTT against Als2cl,inactive: 0.0383
16,GGAAUCUGCCAUUUCAGAUTT against Zbtb5,inactive: 1.35
17,CGUACAAUAGCUAGGCAUUTT against Ankrd22,inactive: 1.67
18,GGUCAACAAGCAUGCAUUUTT against Wars,inactive: -1.65
19,GGAAGUUUGUAUCAAUCCATT against Smad5,inactive: 0.337
20,GGAGUAUGUGGAAUGUCUATT against Creb3l1,inactive: -0.903
21,GGUCAUCAAAUACAAAAUGTT against Prl2b1,inactive: -0.326
22,GGAAAUGACUACUAUGACCTT against Slc12a4,inactive: -0.712

row,Sequence,z-score
1,GGUUCACCACAGGUCUUGUTT against Hdac4,inactive: -0.0347
2,CCUAACGUGCUUCCCACCATT against Arsa,inactive: -1.47
3,GGUGUCGAGUAAGAAAGCUTT against Cep104,inactive: -0.339
4,GGAAAUGUGGAAUACACCGTT against Prl7a2,inactive: 1.39
5,CCUUCAAUAUCAGUUUGGGTT against Olfr10,inactive: -0.241
6,UAUUUUGUUGCUCUCUCAGTT against Olfr97,inactive: -1.13
7,CCUGACAAAAGAACCUUAUTT against Arhgap32,inactive: 0.812
8,GCCUCCACAUAAGAAGCUGTT against Fndc3b,inactive: -0.285
9,GGAUAAGACUCGAUGGAUGTT against Ambra1,inactive: 0.476
10,UGCCUAUUUGGGUAUUAUGTT against H2-M10.3,inactive: -0.536
11,GCUGAAGACGUGAUUUCCUTT against 5930403N24Rik,inactive: 0.543
12,GGAAGAAAACAGCGAUUUGTT against Ppp1r15a,inactive: -0.447
13,GGAAGAGGAGGAGUACAAGTT against Fnbp1,inactive: -0.0804
14,CCAUACAAGUAUCCGAACUTT against 1700102P08Rik,inactive: 1.03
15,GUCUACCUUGUUUAUGACCTT against Micos13,inactive: -1.7
16,CCUCAAUAGCUCUACUGAATT against Slc17a3,inactive: 0.393
17,GAAAUUUCCUAGAUGACUCTT against Vmn1r199,inactive: -0.447
18,GGAGGUUAAUUCAGAGCUGTT against Nrf1,inactive: -0.442

# Some of the entries so far, tab-delimited.
row	Sequence	z-score
12	GGAAGAAAACAGCGAUUUGTT against Ppp1r15a	inactive: -0.447
16	CCUCAAUAGCUCUACUGAATT against Slc17a3	inactive: 0.393
18	GGAGGUUAAUUCAGAGCUGTT against Nrf1	inactive: -0.442
